# Results reported in publication PMC7819943, “Rice protein-binding microarrays: a tool to detect cis-acting elements near promoter regions in rice”.
# Amino acid sequences for entries named in this document (tags omitted).
# UniProt Q0JBA9, entry or part of it: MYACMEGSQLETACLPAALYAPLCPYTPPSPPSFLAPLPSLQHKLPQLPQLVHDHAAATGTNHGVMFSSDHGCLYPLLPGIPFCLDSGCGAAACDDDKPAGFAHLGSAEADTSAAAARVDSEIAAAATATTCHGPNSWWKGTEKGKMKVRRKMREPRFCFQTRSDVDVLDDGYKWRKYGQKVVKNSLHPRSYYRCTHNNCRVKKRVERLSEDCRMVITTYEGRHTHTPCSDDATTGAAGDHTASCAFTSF
# The list shows a part of the results.
# Target: OsWRKY34 (Oryza sativa, UniProt Q0JBA9 1-250)
# Assay: protein-binding microarray (RPBM); PBS, 2% BSA, 51.3 ng/ul salmon testes DNA, 50 uM zinc acetate, 200 nM TF, 25 C, 1 h; high values mean tight binding
# Details: protein: recombinant; tags: N-terminal polyhistidine and DsRed monomer fusion (pET32a); label: CyDye5-dUTP incorporated in the synthesized complementary strand; 3' TTTTT single-stranded linker to array surface; dsDNA, one strand shown
# How it was run: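 The binding signal is fluorescence intensity per array feature (arbitrary units). Readings came from an Axon 4000B scanner after a washed, 2% BSA-blocked, double-stranded custom Agilent array had been incubated for 1 h at 25 °C with 200 nM protein and 50 µM zinc acetate. The protein was a Ni–NTA-purified transcription factor fused N-terminally to polyhistidine and DsRed, expressed in E. coli BL21-CodonPlus.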
row,Sequence,binding signal
1,GGGAGGTGATTAATTAGTTTAGTTTTTTTTTATTTTTGTTCGGAGTCACCTAGTGCAG,9370 fluorescence intensity (a.u.)
2,ATTGACTATTGTGTTTTTCGTGTGTAAGTTCCATTCTCCCCGGAGTCACCTAGTGCAG,8610 fluorescence intensity (a.u.)
3,ATCACATCTTAAATCTGAAGTATGGCACGGTTTATTTTCCCGGAGTCACCTAGTGCAG,8690 fluorescence intensity (a.u.)
4,TTCGATGCTCGTTTGTCACGTCGCTTTTAGTTCTATACTACGGAGTCACCTAGTGCAG,10100 fluorescence intensity (a.u.)
5,GCACACTTTCCGAGCTATTAAACGGTATATTTCTTTAAAACGGAGTCACCTAGTGCAG,8950 fluorescence intensity (a.u.)
6,CTGATGGTGTTGTTTGGCCGGCCGTTGGGCGAATTCGCCACGGAGTCACCTAGTGCAG,8340 fluorescence intensity (a.u.)
7,CGCCACCATCGCTGCGCCGCCATCGCCACCACCGCAGCCGCGGAGTCACCTAGTGCAG,8840 fluorescence intensity (a.u.)
8,TCCATCTACCGCAATGTTCGCCTGCGCTCTCGCCACCGCACGGAGTCACCTAGTGCAG,11400 fluorescence intensity (a.u.)
9,TAGGGAGGGATTAGTTGGTTGTTGCGCTTCGCTGCGCTGTCGGAGTCACCTAGTGCAG,9690 fluorescence intensity (a.u.)
10,GGCCGTCCGATCCTTCCGCGAGTTGTTTTGGCCGTCCATCCGGAGTCACCTAGTGCAG,11200 fluorescence intensity (a.u.)
11,TTTTTTTGTTATTTGTTGGCTTGTTGTTGTTGCTTATCATCGGAGTCACCTAGTGCAG,8260 fluorescence intensity (a.u.)
12,ACTGTTACATGTGCGTTATACTTCCTCCAATATCATAGTTCGGAGTCACCTAGTGCAG,8200 fluorescence intensity (a.u.)
13,GCAGTATAATCAATCAGCCATTCATGTGTTTTGCAATCATCGGAGTCACCTAGTGCAG,9480 fluorescence intensity (a.u.)
14,GCATTCTTTTTTGGACAACTTTATGATCATGTCATTTTAGCGGAGTCACCTAGTGCAG,10700 fluorescence intensity (a.u.)
15,TCGATCTCGTCTTCTTCCTTTCCACGGCACACGGCAGCGCCGGAGTCACCTAGTGCAG,9910 fluorescence intensity (a.u.)
16,ATGCTAAAAAGTCAACGGCGTCAATCATTTCGAAACGGAGCGGAGTCACCTAGTGCAG,12400 fluorescence intensity (a.u.)
17,CAGCTGCTCGTTTATCTCGTTAGTACAACATATTATCATTCGGAGTCACCTAGTGCAG,9940 fluorescence intensity (a.u.)
18,CATGATGAACTAGTAATTACTCCCGCGTGTTGTGCTGTGCCGGAGTCACCTAGTGCAG,9870 fluorescence intensity (a.u.)
19,CATCGAGCTTGATTACCGGTTACTGCATGCTCGCTCGCTCCGGAGTCACCTAGTGCAG,8240 fluorescence intensity (a.u.)
20,TCTGCTTGATCACTAGGCCCTGAAAAGCTTTGTTGCATCACGGAGTCACCTAGTGCAG,10400 fluorescence intensity (a.u.)
21,CACCGTTGACTTTTTAGCACATATTTGACCGTTTGTCTTTCGGAGTCACCTAGTGCAG,39100 fluorescence intensity (a.u.)
22,TTAATTTTCTTGTATCGATCACTTAATTAACTTGGTTCTTCGGAGTCACCTAGTGCAG,8560 fluorescence intensity (a.u.)
23,AAGTCTTCTTGCGCGCACCGCGGTTGCCCTCCCGGGCGCGCGGAGTCACCTAGTGCAG,8060 fluorescence intensity (a.u.)

# Two entries picked at random from those above, as already listed:
row,Sequence,binding signal
7,CGCCACCATCGCTGCGCCGCCATCGCCACCACCGCAGCCGCGGAGTCACCTAGTGCAG,8840 fluorescence intensity (a.u.)
23,AAGTCTTCTTGCGCGCACCGCGGTTGCCCTCCCGGGCGCGCGGAGTCACCTAGTGCAG,8060 fluorescence intensity (a.u.)
